Each structure is given as a SMILES string. The list is a part of this screen's results and no random one: it is rich in T/C values a quarter to a half above the control, in often repeated tests (any T/C) and in doses without a T/C. Further doses and runs are listed elsewhere. T/C is the treated group as % of the vehicle group. Some doses have a count of surviving animals in place of a T/C: the source holds a T/C of zero for them, seemingly a mark for toxic or unscored doses. Some doses without a T/C left all or most animals alive at the check, yet need not have been tolerated: survival well below the control is almost never listed, so the zero probably covers shortened survival too. Survivors were counted at the toxicity check, usually on the fifth day, unless a day is given; later deaths do not show. Schedule codes are those of the source, read here as Q, the interval in days (D) or hours (H), X, the number of doses. Some doses were run more than once; the values are given in rising order. For survival time, the PubChem record calls one and a half times the control and up active, and a quarter to a half above the control has no call in these data; cut-offs in other NCI protocols can differ.

This experiment relates to L1210 leukemia ip in BDF1 mice, survival T/C. Kind of experiment: NCI In Vivo Anticancer Drug Screen. Data for tumor model L1210 Leukemia (intraperitoneal) in B6D2F1 (BDF1) mice. The following applies: higher T/C = longer survival.
Where [1] appears, read: T/C endpoint: mean survival time, dose: 200.0 mg/kg/injection, schedule: Q01DX009 (ip), vehicle: Klucel (hydroxypropylcellulose) (HPC).
Setting [2] is: T/C endpoint: mean survival time, dose: 400.0 mg/kg/injection, schedule: Q01DX009 (ip), vehicle: Klucel (hydroxypropylcellulose) (HPC).
Setting [3] is: T/C endpoint: mean survival time, dose: 400.0 mg/kg/injection, schedule: Q01DX009 (ip), vehicle: saline.
Where [4] appears, read: T/C endpoint: mean survival time, dose: 400.0 mg/kg/injection, schedule: Q04DX003 (ip), vehicle: saline.
Where [5] appears, read: T/C endpoint: mean survival time, dose: 200.0 mg/kg/injection, schedule: Q01DX001 (ip), vehicle: carboxymethylcellulose (CMC).
Setting [6] is: T/C endpoint: mean survival time, dose: 400.0 mg/kg/injection, schedule: Q01DX001 (ip), vehicle: carboxymethylcellulose (CMC).
Where [7] appears, read: T/C endpoint: mean survival time, dose: 100.0 mg/kg/injection, schedule: Q01DX009 (ip), vehicle: Klucel (hydroxypropylcellulose) (HPC).
The mark [8] stands for this setting: T/C endpoint: mean survival time, dose: 200.0 mg/kg/injection, schedule: Q01DX009 (ip), vehicle: saline with Tween-80.
The mark [9] stands for this setting: T/C endpoint: mean survival time, dose: 400.0 mg/kg/injection, schedule: Q01DX009 (ip), vehicle: saline with Tween-80.
Setting [10] is: T/C endpoint: mean survival time, dose: 100.0 mg/kg/injection, schedule: Q04DX003 (ip), vehicle: saline with Tween-80.
Where [11] appears, read: T/C endpoint: mean survival time, dose: 200.0 mg/kg/injection, schedule: Q04DX003 (ip), vehicle: saline with Tween-80.
[12] abbreviates: T/C endpoint: mean survival time, dose: 400.0 mg/kg/injection, schedule: Q04DX003 (ip), vehicle: saline with Tween-80.

Regarding `O=C1C=C(C(=O)O)CO1`, the survivor count is on record as 2 of 6 under setting [1] and 0 of 6 under setting [2].

For `O=[N+]([O-])CC(OCCO)C(Cl)(Cl)Cl` (stereo unspecified), the survivor count is listed as 0 of 6 (T/C endpoint: mean survival time, dose: 100.0 mg/kg/injection, schedule: Q04DX003 (ip), vehicle: acetone); 0 of 6 (T/C endpoint: mean survival time, dose: 200.0 mg/kg/injection, schedule: Q04DX003 (ip), vehicle: acetone); 0 of 6 (T/C endpoint: mean survival time, dose: 400.0 mg/kg/injection, schedule: Q04DX003 (ip), vehicle: acetone).

With `C=CCNP(=O)(OCC)OCC`, the survivor count reads like this: (T/C endpoint: mean survival time, dose: 50.0 mg/kg/injection, schedule: Q01DX009 (ip), vehicle: saline) 6 of 6; under setting [3], 0 of 6; under setting [4], 1 of 6.

Take `FC(F)(F)c1ccc2c(c1)N(CCCN1CCN(CC[n+]3ccccc3)CC1)c1ccccc1S2`: the survivor count is recorded as 3 of 6 (T/C endpoint: mean survival time, dose: 21.0 mg/kg/injection, schedule: Q01DX009 (ip), vehicle: saline); 5 of 6 (T/C endpoint: mean survival time, dose: 50.0 mg/kg/injection, schedule: Q04DX003 (ip), vehicle: saline); 0 of 6 (T/C endpoint: mean survival time, dose: 100.0 mg/kg/injection, schedule: Q04DX003 (ip), vehicle: saline).

Turning to `ClC1(Cl)CC2CC1C1C3CC(C4OC34)C21` (stereo unspecified), the survivor count was 0 of 4 (T/C endpoint: mean survival time, dose: 100.0 mg/kg/injection, schedule: Q01DX001 (ip), vehicle: carboxymethylcellulose (CMC)); 1 of 4 under setting [5]; 0 of 4 under setting [6].

With `O=C(NCCCl)Nc1ccc(Cl)c(Cl)c1`, the survivor count under setting [2] was 0 of 6.

`COC(=O)Nc1cccc(-c2nc3ccc(NC(=O)OC)cc3c(=O)n2-c2ccccc2)c1`: the T/C is 137 % of control (T/C endpoint: mean survival time, dose: 50.0 mg/kg/injection, schedule: Q01DX009 (ip), vehicle: Klucel (hydroxypropylcellulose) (HPC)); 136 % of control under setting [7]; 140 % of control (T/C endpoint: median survival time, dose: 50.0 mg/kg/injection, schedule: Q04DX003 (ip), vehicle: saline); 140 % of control (T/C endpoint: median survival time, dose: 100.0 mg/kg/injection, schedule: Q04DX003 (ip), vehicle: Klucel (hydroxypropylcellulose) (HPC)); 142 % of control (T/C endpoint: median survival time, dose: 100.0 mg/kg/injection, schedule: Q04DX003 (ip), vehicle: saline with Tween-80); 129 % of control (T/C endpoint: median survival time, dose: 500.0 mg/kg/injection, schedule: Q04DX003 (oral), vehicle: saline). For the same compound, the survivor count runs as follows: under setting [7], 6 of 6; (T/C endpoint: mean survival time, dose: 100.0 mg/kg/injection, schedule: Q01DX009 (ip), vehicle: other) 0 of 7; under setting [1], 0 of 6 and 5 of 6; (T/C endpoint: median survival time, dose: 150.0 mg/kg/injection, schedule: Q04DX003 (ip), vehicle: saline) 5 of 7; (T/C endpoint: median survival time, dose: 200.0 mg/kg/injection, schedule: Q04DX003 (ip), vehicle: saline) 4 of 7; (T/C endpoint: median survival time, dose: 400.0 mg/kg/injection, schedule: Q04DX003 (ip), vehicle: other) 2 of 6.

On to `CCOC(=O)c1[nH]c(-c2ccccc2)nc1/N=N/N(C)C`, for which the T/C reads like this: (T/C endpoint: median survival time, dose: 50.0 mg/kg/injection, schedule: Q01DX009 (ip), vehicle: Klucel (hydroxypropylcellulose) (HPC)) 138 % of control; (T/C endpoint: median survival time, dose: 100.0 mg/kg/injection, schedule: Q01DX009 (ip), vehicle: Klucel (hydroxypropylcellulose) (HPC)) 138 % of control.

Take `CCN(CC)CCCC(C)Nc1ccnc(/C=C/c2ccc(Cl)cc2)c1` (stereo unspecified): the survivor count (T/C endpoint: mean survival time, dose: 75.0 mg/kg/injection, schedule: Q01DX009 (ip), vehicle: Klucel (hydroxypropylcellulose) (HPC)) is given as 3 of 6; the survivor count (T/C endpoint: mean survival time, dose: 100.0 mg/kg/injection, schedule: Q01DX009 (ip), vehicle: saline) was 1 of 6; the survivor count (T/C endpoint: mean survival time, dose: 150.0 mg/kg/injection, schedule: Q01DX009 (ip), vehicle: Klucel (hydroxypropylcellulose) (HPC)) is on record as 0 of 6; the survivor count (T/C endpoint: mean survival time, dose: 150.0 mg/kg/injection, schedule: Q04DX003 (ip), vehicle: saline) was 5 of 6; the survivor count (T/C endpoint: mean survival time, dose: 200.0 mg/kg/injection, schedule: Q04DX003 (ip), vehicle: Klucel (hydroxypropylcellulose) (HPC)) is recorded as 1 of 6; the survivor count (T/C endpoint: mean survival time, dose: 300.0 mg/kg/injection, schedule: Q01DX009 (ip), vehicle: Klucel (hydroxypropylcellulose) (HPC)) is recorded as 0 of 6. Also, for the setting “T/C endpoint: mean survival time, dose: 400.0 mg/kg/injection, schedule: Q04DX003 (ip), vehicle: Klucel (hydroxypropylcellulose) (HPC)”, the survivor count is 0 of 6.

In the case of `O=C(Nc1ccc(Br)cc1)c1nc(Br)[nH]c1Br`, the survivor count is given as 1 of 6 (T/C endpoint: mean survival time, dose: 100.0 mg/kg/injection, schedule: Q01DX009 (ip), vehicle: saline with Tween-80); 0 of 6 under setting [8]; 0 of 6 under setting [9].

For the compound `CCC(=O)N(CC)CC`, the survivor count (T/C endpoint: mean survival time, dose: 200.0 mg/kg/injection, schedule: Q01DX001 (ip), vehicle: saline) is 4 of 4.

Regarding `COC(CBr)OC`, the survivor count under setting [10] is 0 of 6 and 1 of 6; the survivor count under setting [11] is 0 of 6; the survivor count under setting [12] is recorded as 0 of 6.

For `CN1CCc2cc3c(cc2C(=O)Cc2ccc4c(c2C1)OCO4)OCO3`, the survivor count reads like this: under setting [5], 0 of 4; under setting [11], 0 of 6; under setting [6], 0 of 4.

With `N#Cc1ncc(C(Cl)Cl)nc1Cl`, the survivor count under setting [4] is on record as 2 of 6.

Consider `O=C1c2ccccc2C(=O)N1CN1C(=O)c2ccccc2C1=O`, for which the survivor count under setting [12] is listed as 6 of 6.

`c1ccc(Cn2ccnc2)cc1`: the survivor count (T/C endpoint: mean survival time, dose: 100.0 mg/kg/injection, schedule: Q01DX009 (ip), vehicle: water) is reported as 0 of 6; the survivor count (T/C endpoint: mean survival time, dose: 150.0 mg/kg/injection, schedule: Q01DX001 (ip), vehicle: saline) is given as 0 of 6; the survivor count (T/C endpoint: mean survival time, dose: 200.0 mg/kg/injection, schedule: Q01DX009 (ip), vehicle: water) is 0 of 6; the survivor count (T/C endpoint: mean survival time, dose: 300.0 mg/kg/injection, schedule: Q01DX001 (ip), vehicle: saline) is listed as 0 of 6; the survivor count (T/C endpoint: mean survival time, dose: 400.0 mg/kg/injection, schedule: Q01DX009 (ip), vehicle: water) is recorded as 0 of 6.

Take `CN(C)Cc1c[nH]c2nccnc12`: the survivor count was 3 of 6 (T/C endpoint: mean survival time, dose: 200.0 mg/kg/injection, schedule: Q04DX003 (ip), vehicle: saline); 0 of 6 under setting [3]; 0 of 6 under setting [4].

Turning to `O=C(O)C(=O)c1ccc(-c2ccccc2)cc1`, for the setting “T/C endpoint: mean survival time, dose: 300.0 mg/kg/injection, schedule: Q01DX001 (ip), vehicle: carboxymethylcellulose (CMC)”, the survivor count was 2 of 6.

On to `CCCCCCCCCCCCN1CC1`, for which the survivor count was 2 of 6 (T/C endpoint: mean survival time, dose: 40.0 mg/kg/injection, schedule: Q01DX009 (ip), vehicle: Klucel (hydroxypropylcellulose) (HPC)); 0 of 6 under setting [7]; 0 of 6 under setting [1]; 0 of 6 under setting [2].

Turning to `CC(=O)C(C)(CCC#N)CCC#N`, the survivor count is, setting by setting: under setting [8], 2 of 6; under setting [12], 1 of 6.

Turning to `COc1cccc(C)c1NC1=NCCO1`, the survivor count by setting is: (T/C endpoint: mean survival time, dose: 12.5 mg/kg/injection, schedule: Q04DX003 (ip), vehicle: saline with Tween-80) 5 of 6; under setting [10], 0 of 6; under setting [11], 0 of 6; under setting [12], 0 of 6.

For `O=C(O)c1ccc(OCC(=O)c2ccccc2)cc1`, the survivor count under setting [9] is recorded as 2 of 6.

In the case of `COc1cccc(/C(C#N)=C\O)c1`, the survivor count (T/C endpoint: mean survival time, dose: 400.0 mg/kg/injection, schedule: Q04DX002 (ip), vehicle: saline with Tween-80) is 3 of 3.

As to `CCOc1ccc(NC(=O)NCBr)cc1`, the survivor count runs as follows: (T/C endpoint: mean survival time, dose: 50.0 mg/kg/injection, schedule: Q01DX009 (ip), vehicle: saline with Tween-80) 3 of 3; under setting [8], 3 of 3.

For the origin of these results see PubChem BioAssay AID248 (DTP/NCI, 2004).
